Among the data in PMC9561166 are binding values, retold here.

Sequences of proteins named here, by UniProt entry; tags and fusion partners are left off.
UniProt P14618: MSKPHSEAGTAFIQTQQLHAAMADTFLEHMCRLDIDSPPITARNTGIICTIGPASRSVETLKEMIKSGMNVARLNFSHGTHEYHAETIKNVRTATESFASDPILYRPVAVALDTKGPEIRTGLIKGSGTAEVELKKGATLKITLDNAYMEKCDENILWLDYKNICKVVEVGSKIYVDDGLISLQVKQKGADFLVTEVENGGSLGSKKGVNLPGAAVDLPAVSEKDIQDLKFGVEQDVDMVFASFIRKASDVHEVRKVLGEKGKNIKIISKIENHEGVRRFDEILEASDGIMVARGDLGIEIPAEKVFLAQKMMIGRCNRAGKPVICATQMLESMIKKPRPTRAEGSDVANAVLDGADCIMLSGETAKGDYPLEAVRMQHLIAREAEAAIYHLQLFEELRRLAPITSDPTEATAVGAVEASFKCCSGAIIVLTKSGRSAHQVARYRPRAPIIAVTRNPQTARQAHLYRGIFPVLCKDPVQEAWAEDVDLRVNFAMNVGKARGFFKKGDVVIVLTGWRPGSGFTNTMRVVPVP
UniProt O60260: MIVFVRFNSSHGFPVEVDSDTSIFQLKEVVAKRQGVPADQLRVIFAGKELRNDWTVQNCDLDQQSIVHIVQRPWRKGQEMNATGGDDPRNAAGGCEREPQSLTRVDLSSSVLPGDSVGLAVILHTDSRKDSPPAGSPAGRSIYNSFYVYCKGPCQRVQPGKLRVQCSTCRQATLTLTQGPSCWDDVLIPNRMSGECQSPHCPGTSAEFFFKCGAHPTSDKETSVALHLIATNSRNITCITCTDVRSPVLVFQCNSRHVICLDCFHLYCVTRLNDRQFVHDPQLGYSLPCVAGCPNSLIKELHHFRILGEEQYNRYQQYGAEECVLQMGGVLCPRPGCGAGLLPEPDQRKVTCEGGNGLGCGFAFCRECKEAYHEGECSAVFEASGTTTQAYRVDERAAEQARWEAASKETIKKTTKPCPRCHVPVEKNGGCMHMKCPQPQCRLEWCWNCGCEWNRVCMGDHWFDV

No constants are given. Whether binding was seen depends on the method and setting. Binding seen in cells or lysates may run through a third protein. Some entries that bind do so weakly or less than the wild type.

This experiment addresses Flag-tagged PKM2 (UniProt P14618). Description: co-IP; lysates of the indicated gastric cancer cells transfected with Flag-PKM2, incubated with anti-Flag agarose beads overnight at 4°C, five washes, Western blot for Parkin; MGC803 control or VAL-silenced; AGS after glucose starvation for 0, 1 and 2 h.

Turning to “Parkin (from UniProt O60260 1-465) (enzyme)”, the binding result is listed as “binds”.
